# Data published in the supplement of paper PMC8728848.
# The list shows a part of the results.
# B1: Gal 12 (Homo sapiens), Q96DT0 (protein)
# chain: MSQPSGGRAPGTRIYSWSCPTVMSPGEKLDPIPDSFILQPPVFHPVVPYVTTIFGGLHAGKMVMLQGVVPLDAHRFQVDFQCGCSLCPRPDIAFHFNPRFHTTKPHVICNTLHGGRWQREARWPHLALRRGSSFLILFLFGNEEVKVSVNGQHFLHFRYRLPLSHVDTLGIFGDILVEAVGFLNINPFVEGSREYPAGHPFLLMSPRLEVPCSHALPQGLSPGQVIIVRGLVLQEPKHFTVSLRDQAAHAPVTLRASFADRTLAWISRWGQKKLISAPFLFYPQRFFEVLLLFQEGGLKLALNGQGLGATSMNQQALEQLRELRISGSVQLYCVHS
# What was measured:
# Assay in all cases: glycan array binding signal (z-score within array); higher = stronger binding
# Conditions in all cases: glycan notation: IUPAC condensed, linker removed
# [1] = target: Gal(b1-4)GlcNAc(b1-3)Gal(b1-4)GlcNAc(b1-2)Man(a1-3)[Gal(b1-4)GlcNAc(b1-3)Gal(b1-4)GlcNAc(b1-2)Man(a1-6)]Man(b1-4)GlcNAc(b1-4)GlcNAc
# Outline: (§1)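 Arrays were curated from the Consortium for Functional Glycomics database, 3228 in total, and kept only where the protein sequence was available. Binding is expressed as a within-array Z-score. This score was averaged across arrays of the same protein sequence at different concentrations or buffers and across linkers, and negative values can be read as non-binding.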
# [2] = target: Gal(b1-4)GlcNAc(b1-3)Gal(b1-4)GlcNAc(b1-2)Man(a1-3)[Gal(b1-4)GlcNAc(b1-3)Gal(b1-4)GlcNAc(b1-2)Man(a1-6)]Man(b1-4)GlcNAc(b1-4)[Fuc(a1-6)]GlcNAc
# Outline: as §1
# [3] = target: Gal(b1-4)GlcNAc(b1-3)Gal(b1-4)GlcNAc(b1-2)[Gal(b1-4)GlcNAc(b1-3)Gal(b1-4)GlcNAc(b1-6)]Man(a1-6)[Gal(b1-4)GlcNAc(b1-3)Gal(b1-4)GlcNAc(b1-2)Man(a1-3)]Man(b1-4)GlcNAc(b1-4)GlcNAc
# Outline: as §1
# [4] = target: Gal(b1-4)GlcNAc(b1-3)Gal(b1-4)GlcNAc(b1-2)[Gal(b1-4)GlcNAc(b1-3)Gal(b1-4)GlcNAc(b1-6)]Man(a1-6)[Gal(b1-4)GlcNAc(b1-3)Gal(b1-4)GlcNAc(b1-2)Man(a1-3)]Man(b1-4)GlcNAc(b1-4)[Fuc(a1-6)]GlcNAc
# Outline: as §1
# [5] = target: Gal(b1-4)GlcNAc(b1-3)Gal(b1-4)GlcNAc(b1-3)Gal(b1-4)GlcNAc
# Outline: as §1
# [6] = target: Gal(b1-4)GlcNAc(b1-3)Gal(b1-4)GlcNAc(b1-3)Gal(b1-4)GlcNAc(b1-2)Man(a1-3)[Gal(b1-4)GlcNAc(b1-3)Gal(b1-4)GlcNAc(b1-3)Gal(b1-4)GlcNAc(b1-2)Man(a1-6)]Man(b1-4)GlcNAc(b1-4)GlcNAc
# Outline: as §1
# [7] = target: Gal(b1-4)GlcNAc(b1-3)Gal(b1-4)GlcNAc(b1-3)Gal(b1-4)GlcNAc(b1-2)Man(a1-3)[Gal(b1-4)GlcNAc(b1-3)Gal(b1-4)GlcNAc(b1-3)Gal(b1-4)GlcNAc(b1-2)Man(a1-6)]Man(b1-4)GlcNAc(b1-4)[Fuc(a1-6)]GlcNAc
# Outline: as §1
# [8] = target: Gal(b1-4)GlcNAc(b1-3)Gal(b1-4)GlcNAc(b1-3)Gal(b1-4)GlcNAc(b1-2)[Gal(b1-4)GlcNAc(b1-3)Gal(b1-4)GlcNAc(b1-3)Gal(b1-4)GlcNAc(b1-6)]Man(a1-6)[Gal(b1-4)GlcNAc(b1-3)Gal(b1-4)GlcNAc(b1-3)Gal(b1-4)GlcNAc(b1-2)Man(a1-3)]Man(b1-4)GlcNAc(b1-4)[Fuc(a1-6)]GlcNAc
# Outline: as §1
# [9] = target: Gal(b1-4)GlcNAc(b1-3)Gal(b1-4)GlcNAc(b1-3)Gal(b1-4)GlcNAc(b1-3)Gal(b1-4)GlcNAc(b1-2)Man(a1-3)[Gal(b1-4)GlcNAc(b1-3)Gal(b1-4)GlcNAc(b1-3)Gal(b1-4)GlcNAc(b1-3)Gal(b1-4)GlcNAc(b1-2)Man(a1-6)]Man(b1-4)GlcNAc(b1-4)GlcNAc
# Outline: as §1
# [10] = target: Gal(b1-4)GlcNAc(b1-3)Gal(b1-4)GlcNAc(b1-3)Gal(b1-4)GlcNAc(b1-3)Gal(b1-4)GlcNAc(b1-2)Man(a1-3)[Gal(b1-4)GlcNAc(b1-3)Gal(b1-4)GlcNAc(b1-3)Gal(b1-4)GlcNAc(b1-3)Gal(b1-4)GlcNAc(b1-2)Man(a1-6)]Man(b1-4)GlcNAc(b1-4)[Fuc(a1-6)]GlcNAc
# Outline: as §1
# [11] = target: Gal(b1-4)GlcNAc(b1-3)Gal(b1-4)GlcNAc(b1-3)Gal(b1-4)GlcNAc(b1-3)Gal(b1-4)GlcNAc(b1-2)[Gal(b1-4)GlcNAc(b1-3)Gal(b1-4)GlcNAc(b1-3)Gal(b1-4)GlcNAc(b1-3)Gal(b1-4)GlcNAc(b1-6)]Man(a1-6)[Gal(b1-4)GlcNAc(b1-3)Gal(b1-4)GlcNAc(b1-3)Gal(b1-4)GlcNAc(b1-3)Gal(b1-4)GlcNAc(b1-2)Man(a1-3)]Man(b1-4)GlcNAc(b1-4)[Fuc(a1-6)]GlcNAc
# Outline: as §1
# [12] = target: Gal(b1-4)GlcNAc(b1-3)Gal(b1-4)GlcNAc(b1-3)Gal(b1-4)GlcNAc(b1-3)Gal(b1-4)GlcNAc(b1-3)Gal(b1-4)GlcNAc(b1-2)Man(a1-3)[Gal(b1-4)GlcNAc(b1-3)Gal(b1-4)GlcNAc(b1-3)Gal(b1-4)GlcNAc(b1-3)Gal(b1-4)GlcNAc(b1-3)Gal(b1-4)GlcNAc(b1-2)Man(a1-6)]Man(b1-4)GlcNAc(b1-4)GlcNAc
# Outline: as §1
# [13] = target: Gal(b1-4)GlcNAc(b1-3)Gal(b1-4)GlcNAc(b1-3)Gal(b1-4)GlcNAc(b1-3)Gal(b1-4)GlcNAc(b1-3)Gal(b1-4)GlcNAc(b1-2)Man(a1-3)[Gal(b1-4)GlcNAc(b1-3)Gal(b1-4)GlcNAc(b1-3)Gal(b1-4)GlcNAc(b1-3)Gal(b1-4)GlcNAc(b1-3)Gal(b1-4)GlcNAc(b1-2)Man(a1-6)]Man(b1-4)GlcNAc(b1-4)[Fuc(a1-6)]GlcNAc
# Outline: as §1
# [14] = target: Gal(b1-4)GlcNAc(b1-3)Gal(b1-4)GlcNAc(b1-3)Gal(b1-4)GlcNAc(b1-3)Gal(b1-4)GlcNAc(b1-3)Gal(b1-4)GlcNAc(b1-2)[Gal(b1-4)GlcNAc(b1-3)Gal(b1-4)GlcNAc(b1-3)Gal(b1-4)GlcNAc(b1-3)Gal(b1-4)GlcNAc(b1-3)Gal(b1-4)GlcNAc(b1-6)]Man(a1-6)[Gal(b1-4)GlcNAc(b1-3)Gal(b1-4)GlcNAc(b1-3)Gal(b1-4)GlcNAc(b1-3)Gal(b1-4)GlcNAc(b1-3)Gal(b1-4)GlcNAc(b1-2)Man(a1-3)]Man(b1-4)GlcNAc(b1-4)[Fuc(a1-6)]GlcNAc
# Outline: as §1
# [15] = target: Gal(b1-4)GlcNAc(b1-3)Gal(b1-4)GlcNAc(b1-3)Gal(b1-4)GlcNAc(b1-3)Gal(b1-4)GlcNAc(b1-3)Gal(b1-4)GlcNAc(b1-3)Gal(b1-4)GlcNAc(b1-2)Man(a1-3)[Gal(b1-4)GlcNAc(b1-3)Gal(b1-4)GlcNAc(b1-3)Gal(b1-4)GlcNAc(b1-3)Gal(b1-4)GlcNAc(b1-3)Gal(b1-4)GlcNAc(b1-3)Gal(b1-4)GlcNAc(b1-2)Man(a1-6)]Man(b1-4)GlcNAc(b1-4)GlcNAc
# Outline: as §1
# [16] = target: Gal(b1-4)GlcNAc(b1-3)Gal(b1-4)GlcNAc(b1-3)GalNAc
# Outline: as §1
# [17] = target: Gal(b1-4)GlcNAc(b1-3)Gal(b1-4)GlcNAc(b1-3)[Gal(b1-4)GlcNAc(b1-3)Gal(b1-4)GlcNAc(b1-6)]GalNAc
# Outline: as §1
# [18] = target: Gal(b1-4)GlcNAc(b1-3)Gal(b1-4)GlcNAc(b1-6)[Gal(b1-3)]GalNAc
# Outline: as §1
# [19] = target: Gal(b1-4)GlcNAc(b1-3)Gal(b1-4)[Fuc(a1-3)GlcNAc(b1-6)]Gal(b1-4)Glc
# Outline: as §1
# [20] = target: Gal(b1-4)GlcNAc(b1-3)Gal(b1-4)[Fuc(a1-3)]GlcNAc(b1-3)Gal(b1-4)[Fuc(a1-3)]GlcNAc
# Outline: as §1
# [21] = target: Gal(b1-4)GlcNAc(b1-3)GalNAc
# Outline: as §1
# [22] = target: Gal(b1-4)GlcNAc(b1-3)[Fuc(a1-3)GlcNAc(b1-6)]Gal(b1-4)Glc
# Outline: as §1
# [23] = target: Gal(b1-4)GlcNAc(b1-3)[Gal(b1-4)GlcNAc(b1-6)]Gal(b1-4)GlcNAc
# Outline: as §1
binder,measurement,setting,value
B1,glycan array binding signal (z-score),[1],1.1
same,glycan array binding signal (z-score),[2],0.609
same,glycan array binding signal (z-score),[3],1.5
same,glycan array binding signal (z-score),[4],-0.068
same,glycan array binding signal (z-score),[5],-0.453
same,glycan array binding signal (z-score),[6],1.53
same,glycan array binding signal (z-score),[7],-0.445
same,glycan array binding signal (z-score),[8],3.44
same,glycan array binding signal (z-score),[9],2.32
same,glycan array binding signal (z-score),[10],-0.034
same,glycan array binding signal (z-score),[11],0.071
same,glycan array binding signal (z-score),[12],1.93
same,glycan array binding signal (z-score),[13],0.431
same,glycan array binding signal (z-score),[14],0.61
same,glycan array binding signal (z-score),[15],1.16
same,glycan array binding signal (z-score),[16],-0.447
same,glycan array binding signal (z-score),[17],-0.119
same,glycan array binding signal (z-score),[18],0.615
same,glycan array binding signal (z-score),[19],-0.022
same,glycan array binding signal (z-score),[20],0.012
same,glycan array binding signal (z-score),[21],0.295
same,glycan array binding signal (z-score),[22],0.537
same,glycan array binding signal (z-score),[23],0.824

# 2 records drawn at random from those above, as already listed:
binder,measurement,setting,value
B1,glycan array binding signal (z-score),[1],1.1
same,glycan array binding signal (z-score),[4],-0.068
